This note sets out measurements from publication PMC11530851.

The exact form of at least one protein or probe is not confirmed. A negative result means that nothing was seen under these conditions. A weaker result is weaker than the reference pair of the same experiment.

The series concerns SKIV2L (hSKI complex subunit) + TTC37 (hSKI complex subunit) + WDR61 (hSKI complex subunit). The series can be described thus: EMSA. The conditions noted are these: 2 mM Mg2+, 25 mM Hepes-KOH pH 7.6, 2 mM Mg acetate, 50 mM NaCl, 1 mM DTT, 0.1 mg/ml BSA, 1 nM substrate, 37 C 30 min, 0.7% agarose gel at 4 C, recombinant protein.
Where [1] appears, read: poor binding, label: 5' 32P on one strand.

For UUAGGGUUAGGGUUAGGGUUAGGGUUAGGG [TERRA], for the setting “lower affinity than TEL18, label: 5' 32P”, the binding result was “binds more weakly”.
“GGTTAGGGTTAGGGTTAGGGTTAGGGTTAG (double strand) [dsDNA (TEL30 + CTEL30)]”: the binding result (label: 5' 32P on one strand) is recorded as “no binding”.
Turning to “CCCCACCACCAUCACUUACCAUCACUU / AAGUGAUGGUAAGUGAU [5' Non-TERRA R:R (5'ss27 + 5'Css17)]”, under setting [1], the binding result was “binds more weakly”.
What is called Kd is a measure of binding affinity in units of concentration. Regarding “ACGUCAGAUGAUCGAUGGGGUUAGGGUUG / CCCCAUCGAUCAUCUGACGU [3' TERRA R:R (LR01 RNA + cLR01_20 RNA)]”, the Kd (label: 5' 32P on one strand) was determined as 0.012 µM.
With “ACGUCAGAUGAUCGAUGGGGUUAGGGUUG / CCCCATCGATCATCTGACGT [3' TERRA R:D (LR01 RNA + cLR01_20)]”, under “label: 5' 32P on one strand, DNA:RNA hybrid”, the Kd was found to be 0.025 µM.
For the sequence “ACGTCAGATGATCGATGGGGTTAGGGTTAG / CCCCATCGATCATCTGACGT [3' TEL D:D (LR01 + cLR01_20)]”, the Kd (label: 5' 32P on one strand) worked out at 0.006 µM.
Turning to “GGTTAGGGTTAGGGTTAGGGTTAGGGTTAG / CTAACCCTAACCCTAACCCT [5' TEL D:D (TEL30 + 5'CTEL20)]”, the binding result under setting [1] is “binds more weakly”.
